Test results taken from article PMC12009302.
No constants are given. Whether binding was seen depends on the method and setting. In cells and extracts the contact can be indirect. Some binding calls cover weakened binding; strength is not graded here. For some assays here: Sequences can lack the tags named with a protein.

Assays:
[1] = target: T1, LIPT1 (endogenous) (human (endogenous in the paper's human cell lines; line not stated)) (UniProt Q9Y234); assay: co-IP; cells lysed in IP lysis buffer with protease inhibitor; supernatant incubated with antibody overnight at 4 °C; protein A/G magnetic beads; immunoblot; endogenous and exogenous (Flag-LIPT1) set-ups
T1 sequence: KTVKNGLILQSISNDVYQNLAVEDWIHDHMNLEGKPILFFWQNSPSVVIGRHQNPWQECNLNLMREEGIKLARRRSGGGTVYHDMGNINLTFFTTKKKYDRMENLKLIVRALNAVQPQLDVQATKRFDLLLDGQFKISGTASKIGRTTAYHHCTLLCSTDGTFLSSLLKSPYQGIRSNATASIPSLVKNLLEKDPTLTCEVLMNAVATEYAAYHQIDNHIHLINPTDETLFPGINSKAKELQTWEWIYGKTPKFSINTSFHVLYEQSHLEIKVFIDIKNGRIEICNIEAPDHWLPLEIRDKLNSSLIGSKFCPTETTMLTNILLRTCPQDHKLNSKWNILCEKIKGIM

Flag-LIPT1 = target: T2, Flag-LIPT1 (UniProt Q9Y234); assay: as above
T2 sequence: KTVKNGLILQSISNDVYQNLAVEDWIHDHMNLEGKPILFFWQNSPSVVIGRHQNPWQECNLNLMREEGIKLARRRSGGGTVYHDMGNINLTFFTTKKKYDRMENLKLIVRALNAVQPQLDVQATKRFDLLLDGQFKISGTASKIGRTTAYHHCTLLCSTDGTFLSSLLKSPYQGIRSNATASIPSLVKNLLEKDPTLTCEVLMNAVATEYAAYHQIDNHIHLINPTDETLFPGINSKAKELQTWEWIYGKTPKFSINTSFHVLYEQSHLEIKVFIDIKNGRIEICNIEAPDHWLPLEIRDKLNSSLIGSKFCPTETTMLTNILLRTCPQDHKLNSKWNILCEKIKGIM

binding [1]: binds
binding (Flag-LIPT1): binds
B1: E3 ubiquitin-protein ligase MGRN1 (enzyme, UniProt O60291 1-552)
chain: MGSILSRRIAGVEDIDIQANSAYRYPPKSGNYFASHFFMGGEKFDTPHPEGYLFGENMDLNFLGSRPVQFPYVTPAPHEPVKTLRSLVNIRKDSLRLVRYKDDADSPTEDGDKPRVLYSLEFTFDADARVAITIYCQASEEFLNGRAVYSPKSPSLQSETVHYKRGVSQQFSLPSFKIDFSEWKDDELNFDLDRGVFPVVIQAVVDEGDVVEVTGHAHVLLAAFEKHMDGSFSVKPLKQKQIVDRVSYLLQEIYGIENKNNQETKPSDDENSDNSNECVVCLSDLRDTLILPCRHLCLCTSCADTLRYQANNCPICRLPFRALLQIRAVRKKPGALSPVSFSPVLAQSLEHDEHSCPFKKSKPHPASLASKKPKRETNSDSVPPGYEPISLLEALNGLRAVSPAIPSAPLYEEITYSGISDGLSQASCPLAAIDHILDSSRQKGRPQSKAPDSTLRSPSSPIHEEDEEKLSEDVDAPPPLGGAELALRESSSPESFITEEVDESSSPQQGTRAASIENVLQDSSPEHCGRGPPADIYLPALGPDSCSVGIDE
